Assay results taken from the supplement of paper PMC10849652.
The list shows a part of the results.

Amino acid sequences for entries named in this document (tags omitted). A change or cut given only in a name is not applied to a line headed by its entry.
UniProt P00491: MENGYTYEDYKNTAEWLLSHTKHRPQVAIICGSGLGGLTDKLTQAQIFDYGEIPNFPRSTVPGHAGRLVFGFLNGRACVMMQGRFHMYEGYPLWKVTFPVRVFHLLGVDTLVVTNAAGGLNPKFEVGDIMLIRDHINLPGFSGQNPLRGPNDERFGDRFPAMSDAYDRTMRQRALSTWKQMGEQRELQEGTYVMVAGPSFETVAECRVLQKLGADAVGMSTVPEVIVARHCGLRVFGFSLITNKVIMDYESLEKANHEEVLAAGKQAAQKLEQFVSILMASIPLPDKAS
UniProt Q9BT43: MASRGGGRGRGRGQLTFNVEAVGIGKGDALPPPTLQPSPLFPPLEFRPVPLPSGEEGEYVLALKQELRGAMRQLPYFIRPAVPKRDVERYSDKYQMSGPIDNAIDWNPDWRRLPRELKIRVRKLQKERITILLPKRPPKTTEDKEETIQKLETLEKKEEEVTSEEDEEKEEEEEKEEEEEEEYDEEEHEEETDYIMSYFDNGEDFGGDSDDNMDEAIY
UniProt Q9HAB8: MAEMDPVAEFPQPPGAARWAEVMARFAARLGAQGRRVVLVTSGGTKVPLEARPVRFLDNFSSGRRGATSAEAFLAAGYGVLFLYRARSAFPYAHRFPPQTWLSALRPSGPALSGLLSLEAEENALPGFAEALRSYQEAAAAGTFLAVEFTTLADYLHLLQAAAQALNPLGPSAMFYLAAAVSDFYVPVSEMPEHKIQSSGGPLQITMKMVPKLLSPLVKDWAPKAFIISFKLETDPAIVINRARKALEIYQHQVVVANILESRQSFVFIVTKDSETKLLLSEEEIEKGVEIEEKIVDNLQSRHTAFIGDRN
UniProt O00411: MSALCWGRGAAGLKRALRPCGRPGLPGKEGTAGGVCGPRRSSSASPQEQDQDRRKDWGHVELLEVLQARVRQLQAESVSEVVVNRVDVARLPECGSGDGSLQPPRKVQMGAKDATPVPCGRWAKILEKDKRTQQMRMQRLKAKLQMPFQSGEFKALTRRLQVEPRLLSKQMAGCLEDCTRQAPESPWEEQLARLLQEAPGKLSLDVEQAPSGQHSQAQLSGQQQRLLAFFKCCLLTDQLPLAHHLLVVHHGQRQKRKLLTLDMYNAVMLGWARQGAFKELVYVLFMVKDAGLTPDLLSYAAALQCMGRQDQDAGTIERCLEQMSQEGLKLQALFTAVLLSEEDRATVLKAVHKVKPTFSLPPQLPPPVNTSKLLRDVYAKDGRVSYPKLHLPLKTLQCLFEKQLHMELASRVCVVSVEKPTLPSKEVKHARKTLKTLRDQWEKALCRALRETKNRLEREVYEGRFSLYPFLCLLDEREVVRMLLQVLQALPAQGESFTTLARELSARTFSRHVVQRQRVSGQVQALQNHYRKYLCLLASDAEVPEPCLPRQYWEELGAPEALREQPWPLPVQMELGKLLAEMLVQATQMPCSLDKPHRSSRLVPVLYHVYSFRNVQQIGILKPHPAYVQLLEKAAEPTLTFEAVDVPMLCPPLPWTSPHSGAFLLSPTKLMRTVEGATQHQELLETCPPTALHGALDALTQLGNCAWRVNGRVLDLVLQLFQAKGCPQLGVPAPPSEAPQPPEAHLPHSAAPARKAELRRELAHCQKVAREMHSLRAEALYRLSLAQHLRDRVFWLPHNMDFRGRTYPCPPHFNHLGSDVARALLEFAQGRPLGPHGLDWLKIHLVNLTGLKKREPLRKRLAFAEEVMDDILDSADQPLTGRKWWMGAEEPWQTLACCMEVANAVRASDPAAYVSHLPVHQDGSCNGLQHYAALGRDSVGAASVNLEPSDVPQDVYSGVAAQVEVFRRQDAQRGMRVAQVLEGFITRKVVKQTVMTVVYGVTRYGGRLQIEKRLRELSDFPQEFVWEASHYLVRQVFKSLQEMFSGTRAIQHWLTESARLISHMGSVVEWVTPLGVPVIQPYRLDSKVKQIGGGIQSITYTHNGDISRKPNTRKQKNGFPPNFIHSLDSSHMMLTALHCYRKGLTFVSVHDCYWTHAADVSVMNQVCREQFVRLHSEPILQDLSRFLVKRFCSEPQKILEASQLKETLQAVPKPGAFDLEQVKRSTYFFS
UniProt Q8NBL1: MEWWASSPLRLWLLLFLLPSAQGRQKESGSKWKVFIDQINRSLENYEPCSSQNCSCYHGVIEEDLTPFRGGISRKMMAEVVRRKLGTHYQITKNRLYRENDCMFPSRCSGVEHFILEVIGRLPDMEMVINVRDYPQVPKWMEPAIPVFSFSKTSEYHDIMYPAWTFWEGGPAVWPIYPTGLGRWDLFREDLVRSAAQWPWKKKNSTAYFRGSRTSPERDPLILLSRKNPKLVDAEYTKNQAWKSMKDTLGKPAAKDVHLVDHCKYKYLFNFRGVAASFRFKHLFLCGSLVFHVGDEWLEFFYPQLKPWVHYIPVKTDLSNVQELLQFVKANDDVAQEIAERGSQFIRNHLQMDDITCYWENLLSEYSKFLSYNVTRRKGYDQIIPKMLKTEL
UniProt P13797: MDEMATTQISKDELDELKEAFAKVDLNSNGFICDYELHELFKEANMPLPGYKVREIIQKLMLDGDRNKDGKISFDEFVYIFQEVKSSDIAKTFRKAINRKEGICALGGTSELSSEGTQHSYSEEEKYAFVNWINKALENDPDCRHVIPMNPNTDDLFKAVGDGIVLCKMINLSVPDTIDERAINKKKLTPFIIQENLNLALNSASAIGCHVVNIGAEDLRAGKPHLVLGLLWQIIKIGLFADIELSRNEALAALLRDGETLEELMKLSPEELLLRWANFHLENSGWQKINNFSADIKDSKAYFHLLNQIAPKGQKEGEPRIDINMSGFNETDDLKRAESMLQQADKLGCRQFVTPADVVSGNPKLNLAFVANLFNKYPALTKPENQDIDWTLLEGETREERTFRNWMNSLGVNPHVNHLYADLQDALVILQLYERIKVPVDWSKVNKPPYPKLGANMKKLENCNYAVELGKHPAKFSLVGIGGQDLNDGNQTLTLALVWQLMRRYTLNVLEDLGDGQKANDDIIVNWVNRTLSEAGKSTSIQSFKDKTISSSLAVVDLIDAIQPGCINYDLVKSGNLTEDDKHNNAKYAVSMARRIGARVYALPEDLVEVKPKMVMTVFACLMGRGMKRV
UniProt P11086: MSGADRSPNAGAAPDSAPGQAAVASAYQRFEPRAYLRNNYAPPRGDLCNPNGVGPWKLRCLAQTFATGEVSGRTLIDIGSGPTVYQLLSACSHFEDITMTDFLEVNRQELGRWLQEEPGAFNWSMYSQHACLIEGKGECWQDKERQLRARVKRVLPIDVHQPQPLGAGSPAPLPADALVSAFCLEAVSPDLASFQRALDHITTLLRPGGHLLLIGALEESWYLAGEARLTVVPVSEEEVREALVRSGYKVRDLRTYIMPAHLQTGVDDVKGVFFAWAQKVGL
UniProt Q8TC44: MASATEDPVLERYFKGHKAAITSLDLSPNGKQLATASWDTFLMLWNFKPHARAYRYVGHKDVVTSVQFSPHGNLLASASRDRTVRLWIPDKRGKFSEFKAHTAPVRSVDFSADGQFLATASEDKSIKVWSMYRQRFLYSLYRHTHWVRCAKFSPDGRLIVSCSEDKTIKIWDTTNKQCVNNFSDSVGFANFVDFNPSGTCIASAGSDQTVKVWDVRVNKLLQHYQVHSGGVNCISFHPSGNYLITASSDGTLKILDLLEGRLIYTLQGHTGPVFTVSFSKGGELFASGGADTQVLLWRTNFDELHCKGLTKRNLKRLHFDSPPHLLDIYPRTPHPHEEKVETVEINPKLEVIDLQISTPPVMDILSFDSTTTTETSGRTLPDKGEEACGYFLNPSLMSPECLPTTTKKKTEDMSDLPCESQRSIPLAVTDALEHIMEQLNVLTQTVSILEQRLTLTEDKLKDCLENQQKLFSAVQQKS
UniProt Q9HCU8: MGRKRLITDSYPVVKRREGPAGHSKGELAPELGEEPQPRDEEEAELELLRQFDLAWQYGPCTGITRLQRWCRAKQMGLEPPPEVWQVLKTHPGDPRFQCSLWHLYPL
UniProt Q58EX7: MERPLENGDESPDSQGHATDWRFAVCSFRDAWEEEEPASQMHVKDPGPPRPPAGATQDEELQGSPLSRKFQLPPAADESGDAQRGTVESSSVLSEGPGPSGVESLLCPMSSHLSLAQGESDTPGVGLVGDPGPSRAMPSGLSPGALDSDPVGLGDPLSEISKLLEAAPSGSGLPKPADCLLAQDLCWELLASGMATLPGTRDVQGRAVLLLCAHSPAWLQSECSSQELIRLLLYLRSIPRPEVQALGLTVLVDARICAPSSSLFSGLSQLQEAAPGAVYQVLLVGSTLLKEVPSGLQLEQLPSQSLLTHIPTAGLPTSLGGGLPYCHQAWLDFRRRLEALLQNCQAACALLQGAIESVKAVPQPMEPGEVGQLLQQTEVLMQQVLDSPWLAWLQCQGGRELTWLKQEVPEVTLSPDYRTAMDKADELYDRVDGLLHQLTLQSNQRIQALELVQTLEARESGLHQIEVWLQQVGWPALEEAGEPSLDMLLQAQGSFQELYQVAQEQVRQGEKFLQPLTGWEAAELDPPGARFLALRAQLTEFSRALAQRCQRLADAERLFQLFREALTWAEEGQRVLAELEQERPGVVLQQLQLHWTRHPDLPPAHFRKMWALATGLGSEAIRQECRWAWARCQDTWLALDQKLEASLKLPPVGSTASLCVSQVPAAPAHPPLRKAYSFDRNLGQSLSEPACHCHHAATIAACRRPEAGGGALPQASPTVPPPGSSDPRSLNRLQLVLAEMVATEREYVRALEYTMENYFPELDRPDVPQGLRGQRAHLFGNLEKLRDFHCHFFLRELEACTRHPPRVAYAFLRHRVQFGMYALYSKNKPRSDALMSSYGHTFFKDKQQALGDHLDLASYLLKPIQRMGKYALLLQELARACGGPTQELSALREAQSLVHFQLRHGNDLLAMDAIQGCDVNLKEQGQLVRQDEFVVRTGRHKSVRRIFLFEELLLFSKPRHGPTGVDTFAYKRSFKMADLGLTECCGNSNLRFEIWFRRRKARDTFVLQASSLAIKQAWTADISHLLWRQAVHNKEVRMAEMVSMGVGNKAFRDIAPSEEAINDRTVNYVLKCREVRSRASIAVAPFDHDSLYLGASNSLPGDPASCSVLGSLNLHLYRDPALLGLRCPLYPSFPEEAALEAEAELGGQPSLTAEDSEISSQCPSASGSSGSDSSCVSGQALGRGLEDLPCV
UniProt Q6EEV4: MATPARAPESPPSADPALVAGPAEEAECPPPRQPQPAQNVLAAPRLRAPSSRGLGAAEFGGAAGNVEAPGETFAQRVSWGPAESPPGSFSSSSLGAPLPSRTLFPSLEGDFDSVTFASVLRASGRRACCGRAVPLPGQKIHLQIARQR
UniProt Q86W92: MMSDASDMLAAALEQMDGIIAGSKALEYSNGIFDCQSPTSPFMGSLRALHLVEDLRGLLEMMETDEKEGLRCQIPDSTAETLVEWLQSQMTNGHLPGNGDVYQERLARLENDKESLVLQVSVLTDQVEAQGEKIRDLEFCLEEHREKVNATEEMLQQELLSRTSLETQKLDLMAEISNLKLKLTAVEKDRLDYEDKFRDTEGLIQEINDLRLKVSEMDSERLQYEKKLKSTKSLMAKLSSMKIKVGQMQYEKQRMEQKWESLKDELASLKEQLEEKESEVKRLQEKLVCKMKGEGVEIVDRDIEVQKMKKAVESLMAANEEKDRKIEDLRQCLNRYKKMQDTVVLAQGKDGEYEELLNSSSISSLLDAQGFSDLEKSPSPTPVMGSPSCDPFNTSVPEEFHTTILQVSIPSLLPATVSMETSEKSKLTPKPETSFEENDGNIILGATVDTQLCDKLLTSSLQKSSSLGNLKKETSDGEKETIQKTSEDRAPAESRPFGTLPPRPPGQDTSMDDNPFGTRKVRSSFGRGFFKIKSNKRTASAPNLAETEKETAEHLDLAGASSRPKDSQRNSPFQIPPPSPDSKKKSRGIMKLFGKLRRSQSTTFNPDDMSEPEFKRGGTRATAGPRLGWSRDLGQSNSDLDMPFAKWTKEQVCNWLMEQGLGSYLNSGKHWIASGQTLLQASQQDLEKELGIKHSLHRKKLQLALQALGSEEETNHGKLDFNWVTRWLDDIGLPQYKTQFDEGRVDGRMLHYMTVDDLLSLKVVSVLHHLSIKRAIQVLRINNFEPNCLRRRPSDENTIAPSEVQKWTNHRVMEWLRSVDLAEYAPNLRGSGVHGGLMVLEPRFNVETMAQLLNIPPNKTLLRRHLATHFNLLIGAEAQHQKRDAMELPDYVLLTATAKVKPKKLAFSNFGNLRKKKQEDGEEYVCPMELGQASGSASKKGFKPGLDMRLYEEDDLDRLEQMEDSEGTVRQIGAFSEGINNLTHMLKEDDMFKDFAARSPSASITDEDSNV
UniProt Q9NRY6: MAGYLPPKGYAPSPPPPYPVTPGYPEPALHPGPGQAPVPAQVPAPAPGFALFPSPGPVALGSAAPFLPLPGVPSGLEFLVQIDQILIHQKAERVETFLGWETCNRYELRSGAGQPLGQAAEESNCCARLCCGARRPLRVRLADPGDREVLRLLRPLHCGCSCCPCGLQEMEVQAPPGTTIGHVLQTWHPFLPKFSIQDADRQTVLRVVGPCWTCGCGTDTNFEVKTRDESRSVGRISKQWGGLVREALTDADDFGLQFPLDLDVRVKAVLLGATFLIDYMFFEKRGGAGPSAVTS

Columns and labels:
Experiment in all cases: log2 fold change, soluble protein after heating vs DMSO (PISA); higher = thermal stabilisation; K562 lysate, 10 uM; active = over 0.2 and 3.5 SD of the protein, either way, in both replicates (recomputed)
erlotinib = compound: C#Cc1cccc(Nc2ncnc3cc(OCCOC)c(OCCOC)cc23)c1 [erlotinib]
Summary of the method: (§1)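 Log-two fold change in thermal stability relative to solvent controls is reported from duplicates. For each sample, crude K562 extract from dounce-homogenised pellets in PBS pH 7.4 with 1 mM MgCl2, at 1 mg/mL protein, was treated with 10 μM compound for 30 min. Aliquots heated for 3 min across 48°C-58°C were pooled, brought to 0.5% NP-40 at 4°C and cleared at 21,000xg for 90 min. The supernatant was quantified by TMTpro 16plex LC-MS/MS with channel sums equalised.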

[1] = compound: C/C(=N\NC(=O)C1=CC(=CC=C1)S(=O)(=O)N2CCOCC2)/C3=C(C=CC(=C3)Cl)O
Summary of the method: as §1

[2] = compound: C1=CC(=CC=C1C2=NC3=C(N2)C=C(C=C3)C(=O)N)OC4=CC=C(C=C4)Cl
Summary of the method: as §1

[3] = compound: C1=CC2=C(C=CC(=C2)/C=C\3/C(=O)NC(=NCC4=CC=CS4)S3)N=C1
Summary of the method: as §1

[4] = compound: C1=CC2=NC=CN=C2C=C1/C=C/3\C(=O)NC(=O)S3
Summary of the method: as §1

[5] = compound: C1=CC=C(C=C1)C2=NC(=C(N2)C3=CC=NC=C3)C4=CC(=C(C=C4)Cl)O
Summary of the method: as §1

[6] = compound: C1=CC=C2C(=C1)C3=NNC4=CC=CC(=C43)C2=O
Summary of the method: as §1

[7] = compound: C1CCN(C1)C(=O)NC2=CC=CC(=C2)NC3=NC=C(C(=N3)NCCC4=CN=CN4)Br
Summary of the method: as §1

[8] = compound: C1CN(CCC1(CC2=CC=C(C=C2)Cl)N)C3=NC=NC4=C3C=CN4
Summary of the method: as §1

IRAK-1-4 Inhibitor I = compound: C1COCCN1CCN2C3=CC=CC=C3N=C2NC(=O)C4=CC(=CC=C4)[N+](=O)[O-] [IRAK-1-4 Inhibitor I]
Summary of the method: as §1

Measured: log2 fold change

PLK1 (UniProt P53350)
inactive: erlotinib 0.006 | [1] -0.032 | [2] -0.013 | [3] 0.077 | [4] -0.092 | [5] 0 | [6] -0.147 | [7] -0.069 | [8] 0.143 | IRAK-1-4 Inhibitor I -0.141

PMS1 (UniProt P54277)
inactive: erlotinib -0.024 | [1] 0.012 | [2] 0.041 | [3] -0.002 | [4] 0.106 | [5] 0.03 | [6] -0.094 | [7] -0.002 | [8] 0.016 | IRAK-1-4 Inhibitor I -0.027

PNP (UniProt P00491)
inactive: erlotinib -0.044 | [1] 0.023 | [2] 0.004 | [3] -0.011 | [4] -0.009 | [5] -0.008 | [6] -0.018 | [7] 0.009 | [8] -0.009 | IRAK-1-4 Inhibitor I -0.008

POLR1A (UniProt O95602)
inactive: erlotinib 0.086 | [1] 0.003 | [2] 0.092 | [3] 0.003 | [4] -0.084 | [5] 0.003 | [6] -0.074 | [7] -0.015 | [8] 0.049 | IRAK-1-4 Inhibitor I -0.001

POMK (UniProt Q9H5K3)
inactive: erlotinib -0.085 | [1] 0.052 | [2] -0.142 | [3] -0.13 | [4] 0.065 | [5] -0.05 | [6] -0.04 | [7] -0.074 | [8] 0.076 | IRAK-1-4 Inhibitor I -0.135

POLR3GL (UniProt Q9BT43)
inactive: erlotinib -0.055 | [1] -0.053 | [2] -0.026 | [3] -0.041 | [4] 0.033 | [5] -0.008 | [6] 0.005 | [7] -0.006 | [8] 0.033 | IRAK-1-4 Inhibitor I 0.038

PPCS (UniProt Q9HAB8)
inactive: erlotinib -0.03 | [1] -0.108 | [2] -0.009 | [3] -0.061 | [4] 0.021 | [5] -0.017 | [6] -0.043 | [7] -0.045 | [8] 0.003 | IRAK-1-4 Inhibitor I -0.009

POFUT1 (UniProt Q9H488)
inactive: erlotinib 0.026 | [1] 0.025 | [2] 0.021 | [3] 0.038 | [4] -0.03 | [5] -0.004 | [6] 0.022 | [7] 0.005 | [8] -0.009 | IRAK-1-4 Inhibitor I 0.022

POLR3K (UniProt Q9Y2Y1)
inactive: erlotinib 0.005 | [1] 0.01 | [2] -0.024 | [3] 0.075 | [4] 0.042 | [5] 0.095 | [6] -0.058 | [7] 0.013 | [8] 0.018 | IRAK-1-4 Inhibitor I -0.056

POLRMT (UniProt O00411)
inactive: erlotinib -0.015 | [1] 0.006 | [2] -0.002 | [3] -0.084 | [4] -0.073 | [5] -0.021 | [6] -0.117 | [7] -0.032 | [8] -0.06 | IRAK-1-4 Inhibitor I -0.004

POLDIP3 (UniProt Q9BY77)
inactive: erlotinib -0.047 | [1] -0.072 | [2] 0 | [3] 0.038 | [4] -0.15 | [5] 0.049 | [6] 0.053 | IRAK-1-4 Inhibitor I 0.034

PMS2 (UniProt P54278)
inactive: erlotinib 0.036 | [1] 0.012 | [2] -0.058 | [3] -0.005 | [4] -0.015 | [5] -0.028 | [6] -0.032 | [7] -0.013 | [8] 0.012 | IRAK-1-4 Inhibitor I 0.001

PLEKHO2 (UniProt Q8TD55)
inactive: erlotinib 0.188 | [1] 0.008 | [2] -0.023 | [3] 0.106 | [4] -0.06 | [5] 0.184 | [6] -0.014 | [7] -0.075 | [8] 0.186 | IRAK-1-4 Inhibitor I -0.004

PNKP (UniProt Q96T60)
inactive: erlotinib -0.187 | [1] 0.02 | [2] 0.083 | [3] 0.082 | [4] -0.06 | [5] -0.011 | [6] -0.035 | [7] -0.009 | [8] 0.039 | IRAK-1-4 Inhibitor I -0.018

PMVK (UniProt Q15126)
inactive: erlotinib -0.004 | [1] 0.024 | [2] -0.02 | [3] -0.033 | [4] 0.05 | [5] -0.005 | [6] -0.033 | [7] 0.084 | [8] -0.025 | IRAK-1-4 Inhibitor I -0.021

POLR2M (UniProt P0CAP2)
inactive: erlotinib 0.075 | [1] -0.053 | [2] 0.014 | [3] 0.034 | [4] -0.013 | [5] 0.027 | [6] -0.045 | [7] -0.182 | [8] -0.002 | IRAK-1-4 Inhibitor I 0.026

PNPT1 (UniProt Q8TCS8)
inactive: erlotinib -0.007 | [1] -0.034 | [2] 0.012 | [3] 0.007 | [4] 0 | [5] -0.016 | [6] -0.016 | [7] -0.021 | [8] 0.04 | IRAK-1-4 Inhibitor I -0.006

PML (UniProt P29590)
inactive: erlotinib -0.014 | [1] 0.031 | [2] 0.012 | [3] 0.005 | [4] -0.019 | [5] -0.002 | [6] 0.019 | [7] -0.005 | [8] -0.029 | IRAK-1-4 Inhibitor I -0.023

POGLUT1 (UniProt Q8NBL1)
inactive: erlotinib -0.009 | [1] 0.005 | [2] -0.005 | [3] -0.001 | [4] -0.023 | [5] -0.043 | [6] -0.038 | [7] -0.027 | [8] -0.015 | IRAK-1-4 Inhibitor I -0.064

PLS3 (UniProt P13797)
inactive: erlotinib 0.017 | [1] 0.019 | [2] 0.02 | [3] -0.014 | [4] 0.018 | [5] 0.012 | [6] 0.031 | [7] 0.013 | [8] 0.013 | IRAK-1-4 Inhibitor I 0.026

PML isoform 11 (UniProt P29590)
inactive: [1] 0.048 | [3] -0.056 | [6] 0.026 | [7] 0.084 | [8] -0.053

PNMT (UniProt P11086)
inactive: erlotinib 0.035 | [1] -0.178 | [2] 0.009 | [3] -0.041 | [5] -0.098 | [6] -0.219 | IRAK-1-4 Inhibitor I 0.094

PLXNB1 (UniProt O43157)
inactive: erlotinib -0.007 | [2] 0.145 | [5] -0.014 | IRAK-1-4 Inhibitor I 0.108

PM20D2 (UniProt Q8IYS1)
inactive: [1] -0.049 | [3] 0.06 | [4] -0.006 | [5] 0.206 | [6] 0.047 | [7] 0.133 | [8] -0.128 | IRAK-1-4 Inhibitor I -0.01

PPIC (UniProt P45877)
inactive: erlotinib 0.049 | [1] -0.042 | [2] 0.119 | [3] 0.025 | [4] 0.265 | [5] -0.032 | [6] 0.036 | IRAK-1-4 Inhibitor I 0.06

POC1B (UniProt Q8TC44)
inactive: erlotinib -0.066 | [1] -0.038 | [2] -0.146 | [3] 0.192 | [5] 0 | [6] -0.436 | [7] -0.045 | [8] 0.182 | IRAK-1-4 Inhibitor I 0.032

POLD4 (UniProt Q9HCU8)
inactive: erlotinib 0.033 | [1] 0.043 | [2] 0.003 | [3] 0.028 | [5] 0.025 | [6] 0.018 | [7] -0.007 | [8] -0.012 | IRAK-1-4 Inhibitor I 0.07

PLEKHG4 (UniProt Q58EX7)
inactive: [1] 0.121 | [3] 0.016 | [5] 0.113 | [6] 0.021 | [7] 0.039 | [8] -0.075 | IRAK-1-4 Inhibitor I -0.014

PLEKHJ1 (UniProt Q9NW61)
inactive: erlotinib 0.03 | [2] 0.009 | [5] -0.009 | IRAK-1-4 Inhibitor I -0.015

PMS2CL (UniProt Q68D20)
inactive: [4] 0.101 | [5] -0.041 | IRAK-1-4 Inhibitor I 0.054

POLR2M (UniProt Q6EEV4)
inactive: erlotinib 0.011 | [1] 0.164 | [2] -0.025 | [3] -0.031 | [4] -0.045 | [6] -0.111 | [7] 0.052 | [8] -0.01

Fetched one by one from above (3):
PM20D2 (UniProt Q8IYS1)
inactive: [1] -0.049 | [3] 0.06 | [4] -0.006 | [5] 0.206 | [6] 0.047 | [7] 0.133 | [8] -0.128 | IRAK-1-4 Inhibitor I -0.01

POMK (UniProt Q9H5K3)
inactive: erlotinib -0.085 | [1] 0.052 | [2] -0.142 | [3] -0.13 | [4] 0.065 | [5] -0.05 | [6] -0.04 | [7] -0.074 | [8] 0.076 | IRAK-1-4 Inhibitor I -0.135

PMS2 (UniProt P54278)
inactive: erlotinib 0.036 | [1] 0.012 | [2] -0.058 | [3] -0.005 | [4] -0.015 | [5] -0.028 | [6] -0.032 | [7] -0.013 | [8] 0.012 | IRAK-1-4 Inhibitor I 0.001

Further records follow.

PPHLN1 (UniProt Q8NEY8)
inactive: erlotinib -0.034 | [1] -0.237 | [2] -0.096 | [3] 0.003 | [6] -0.001 | [7] -0.062 | [8] -0.007

PPFIBP2 (UniProt Q8ND30)
inactive: [7] -0.118 | [8] 0.328

POM121C (UniProt A8CG34)
inactive: erlotinib 0.001 | [2] 0.027 | [4] 0.032 | [5] -0.064 | IRAK-1-4 Inhibitor I -0.069

PPFIBP1 (UniProt Q86W92)
inactive: [7] 0.12 | [8] -0.116

PLSCR3 (UniProt Q9NRY6)
inactive: [1] -0.048 | [3] -0.189 | [6] 0.149 | [7] -0.126 | [8] 0.25
